Drawing on PubChem BioAssay AID192 (DTP/NCI, 2004), this text covers T/C and survivor count for 18 compounds.

The test system of this test is BDF1 mice, B16 melanoma ip, median survival T/C. The test is described as follows: NCI In Vivo Anticancer Drug Screen. Data for tumor model B16 Melanoma (intraperitoneal) in B6D2F1 (BDF1) mice. As to conditions: T/C endpoint: median survival time, higher T/C = longer survival. Summed up:
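In this screen, activity was judged from survival or tumor size in treated versus vehicle-treated tumor-bearing mice, reported as T/C.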

The mark [1] stands for this setting: dose: 200.0 mg/kg/injection, schedule: Q01DX009 (ip), vehicle: saline.
Where [2] appears, read: dose: 400.0 mg/kg/injection, schedule: Q01DX009 (ip), vehicle: saline.
Where [3] appears, read: dose: 100.0 mg/kg/injection, schedule: Q01DX009 (ip), vehicle: Klucel (hydroxypropylcellulose) (HPC).
Where [4] appears, read: dose: 50.0 mg/kg/injection, schedule: Q01DX009 (ip), vehicle: saline with Tween-80.
Where [5] appears, read: dose: 40.0 mg/kg/injection, schedule: Q01DX009 (ip), vehicle: saline with Tween-80.
The mark [6] stands for this setting: dose: 200.0 mg/kg/injection, schedule: Q01DX009 (ip), vehicle: Klucel (hydroxypropylcellulose) (HPC).
Setting [7] is: dose: 400.0 mg/kg/injection, schedule: Q01DX009 (ip), vehicle: Klucel (hydroxypropylcellulose) (HPC).
Setting [8] is: dose: 32.0 mg/kg/injection, schedule: Q01DX009 (ip), vehicle: saline.

The list shows only some results of the screen, not a fair sample: it gathers tests that were run many times, whatever their T/C, doses with no T/C, and many T/C values between a quarter and a half above the control. Further doses and runs are listed elsewhere. T/C gives the treated animals as a percentage of the vehicle group. Some entries give survivors of the animals treated and no T/C: the source files T/C as zero there, which appears to mark a toxic dose or a test without result, not a measured value. Some survivor counts are full or nearly so, which does not show that the dose was tolerated: the source hardly ever lists a survival T/C far under the control, and the zero likely stands for such cases as well. Survivors were counted at the toxicity check, usually on the fifth day, unless a day is given; later deaths do not show. Schedules are NCI's codes, read here as Q, the interval in days (D) or hours (H), X, the number of doses. Marks such as (2×) say how often a value occurs here. Where survival is the endpoint, this PubChem deposit counts one and a half times the control or more as active, and values a quarter to a half above the control carry no call in these data; other NCI protocols may use other cut-offs.

As to `O=C1NC(=O)C2(CCc3ccc(N(CCCl)CCCl)cc32)N1` (stereo unspecified), for the setting “dose: 6.0 mg/kg/injection, schedule: Q01DX009 (ip), vehicle: saline with Tween-80”, the T/C was 137 % of control. For the same compound, the survivor count runs as follows: (dose: 6.25 mg/kg/injection, schedule: Q01DX004 (oral), vehicle: saline with Tween-80) 4 of 10; (dose: 24.0 mg/kg/injection, schedule: Q01DX009 (ip), vehicle: saline with Tween-80) 10 of 10; (dose: 25.0 mg/kg/injection, schedule: Q01DX004 (oral), vehicle: saline with Tween-80) 5 of 10; (dose: 48.0 mg/kg/injection, schedule: Q01DX009 (ip), vehicle: saline with Tween-80) 10 of 10; (dose: 50.0 mg/kg/injection, schedule: Q01DX004 (oral), vehicle: saline with Tween-80) 6 of 10; (dose: 100.0 mg/kg/injection, schedule: Q01DX004 (oral), vehicle: saline with Tween-80) 3 of 10. Further, where the note is “dose: 200.0 mg/kg/injection, schedule: Q01DX004 (oral), vehicle: saline with Tween-80”, the survivor count is recorded as 5 of 10.

Consider `COCCNCCN1CCN(CCCN2c3ccccc3Sc3ccc(C(F)(F)F)cc32)CC1`, for which the survivor count runs as follows: (dose: 45.0 mg/kg/injection, schedule: Q01DX009 (ip), vehicle: saline) 7 of 10; (dose: 70.0 mg/kg/injection, schedule: Q01DX009 (ip), vehicle: saline) 1 of 10; (dose: 105.0 mg/kg/injection, schedule: Q01DX009 (ip), vehicle: saline) 0 of 10.

Take `CN(C)N=Nc1ccc(C(=O)O)cc1`: the survivor count (dose: 100.0 mg/kg/injection, schedule: Q01DX009 (ip), vehicle: saline) is 10 of 10; the survivor count under setting [1] is 9 of 10; the survivor count under setting [2] is 1 of 10.

As to `CN(Cc1cnc2nc(N)nc(N)c2n1)c1c(Cl)cc(C(=O)NC(CCC(=O)O)C(=O)O)cc1Br` (stereo unspecified), the survivor count (dose: 100.0 mg/kg/injection, schedule: Q01DX011 (ip), vehicle: saline) is listed as 10 of 10.

Turning to `C=C1C(=O)OC2CC1C(OC(=O)/C=C/c1ccccc1)C/C(C)=C/CC/C(C)=C/CCC2(C)O` (stereo unspecified), the survivor count under setting [3] was 7 of 10.

Regarding `O=C(NC1CCc2ccccc21)c1ccccc1` (stereo unspecified), the survivor count runs as follows: under setting [4], 10 of 10; (dose: 100.0 mg/kg/injection, schedule: Q01DX009 (ip), vehicle: saline with Tween-80) 10 of 10; (dose: 200.0 mg/kg/injection, schedule: Q01DX009 (ip), vehicle: saline with Tween-80) 10 of 10; (dose: 400.0 mg/kg/injection, schedule: Q01DX009 (ip), vehicle: saline with Tween-80) 9 of 10.

For the compound `O=C1C=C(N2CC2)c2ccccc2C1=O`, the survivor count is given as 4 of 6 (dose: 20.0 mg/kg/injection, schedule: Q01DX009 (ip), vehicle: saline with Tween-80) and 0 of 6 under setting [5].

As to `O=C1/C(=N/O)CCc2ccccc21`, the survivor count under setting [6] is listed as 7 of 10.

For `COC1N(C2CC(O)C(CO)O2)C(=O)NC(=O)C1(F)Br` (stereo unspecified), the survivor count under setting [5] is given as 6 of 6 and the survivor count (dose: 50.0 mg/kg/injection, schedule: Q01DX009 (ip), vehicle: saline) was 10 of 10.

Take `C=C1C(C)C2C(Cc3ccccc3)NC(=O)C23OC(=O)/C=C\CC(=O)CCC(C)C/C=C/C3C1O` (stereo unspecified): the T/C (dose: 5.0 mg/kg/injection, schedule: Q01DX009 (ip), vehicle: Klucel (hydroxypropylcellulose) (HPC)) is 139 % of control. The survivor count (dose: 10.0 mg/kg/injection, schedule: Q01DX009 (ip), vehicle: Klucel (hydroxypropylcellulose) (HPC)) is 5 of 10 and the survivor count (dose: 20.0 mg/kg/injection, schedule: Q01DX009 (ip), vehicle: Klucel (hydroxypropylcellulose) (HPC)) is listed as 0 of 10.

As for `C[C@]12CCC(=O)C=C1CC[C@@H]1[C@@H]2C(=O)C[C@]2(C)C3=CC(=O)O[C@H]3C[C@@H]12`, the survivor count is, setting by setting: under setting [4], 10 of 10; under setting [3], 0 of 6; under setting [6], 0 of 6; under setting [7], 0 of 6.

As for `CCCCCCCCCCCCCCCCCCNC(=S)N/N=C/c1ccc(Cl)cc1Cl`, the survivor count under setting [2] is recorded as 10 of 10.

For `O=C1C(Cl)=C(N2CC2)C(=O)C(Cl)=C1N1CC1`, the T/C (dose: 5.0 mg/kg/injection, schedule: Q01DX009 (ip), vehicle: saline) is 125 % of control. Besides, the survivor count (dose: 10.0 mg/kg/injection, schedule: Q01DX009 (ip), vehicle: saline) is reported as 5 of 10 and the survivor count (dose: 20.0 mg/kg/injection, schedule: Q01DX009 (ip), vehicle: saline) is on record as 0 of 10.

As for `CN(C)C1=NC(=O)C(c2ccccc2)O1` (stereo unspecified), the survivor count under setting [1] is listed as 0 of 10.

For the compound `COc1cc2ccc(Cc3nccc4cc(OC)c(OC)cc34)cc2cc1OC`, under setting [7], the survivor count was 8 of 10.

On to `CCCCN(CC)C(=S)S[Te](SC(=S)N(CC)CCCC)(SC(=S)N(CC)CCCC)SC(=S)N(CC)CCCC`, for which the survivor count under setting [6] is given as 4 of 6.

For the compound `CC12NC(=O)NC1(C)NC(=O)N2` (stereo unspecified), the survivor count was 9 of 10 (dose: 200.0 mg/kg/injection, schedule: Q04DX003 (ip), vehicle: saline with Tween-80) and 6 of 10 (dose: 400.0 mg/kg/injection, schedule: Q04DX003 (ip), vehicle: saline with Tween-80).

As for `Nc1nc([Se])c2ncn(C3OC(CO)C(O)C3O)c2n1` (stereo unspecified), the T/C was 136 % of control (dose: 1.0 mg/kg/injection, schedule: Q01DX009 (ip), vehicle: saline); 130 % of control (dose: 16.0 mg/kg/injection, schedule: Q01DX009 (ip), vehicle: saline); 126 % of control under setting [8]. The survivor count by setting is: under setting [8], 9 of 10; (dose: 64.0 mg/kg/injection, schedule: Q01DX009 (ip), vehicle: saline) 9 of 10 (2×).
